Measured values published in the supplement of paper PMC8728848.
Some of the results follow.

Tests used:
Assay in all cases: glycan array binding signal (z-score within array); higher = stronger binding
Conditions in all cases: glycan notation: IUPAC condensed, linker removed
[1] = molecular target: Fuc(a1-2)Gal6S(b1-3)GlcNAc
How it was run: (§1)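 Columns mapping to the same glycan were averaged after glycan names were converted to IUPAC-condensed notation. The data come from 3228 arrays in the Consortium for Functional Glycomics database, limited to those with an available protein sequence. Binding is reported as a within-array Z-score averaged across arrays of one protein sequence and across linkers.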

[2] = molecular target: Fuc(a1-2)Gal6S(b1-3)GlcNAc6S
How it was run: as §1

Fuc(a1-2)Gal6S(b1-4)Glc = molecular target: Fuc(a1-2)Gal6S(b1-4)Glc
How it was run: as §1

[3] = molecular target: Fuc(a1-2)Gal6S(b1-4)Glc6S
How it was run: as §1

Fuc(a1-2)[Gal(a1-3)]Gal = molecular target: Fuc(a1-2)[Gal(a1-3)]Gal
How it was run: as §1

[4] = molecular target: Fuc(a1-2)[Gal(a1-3)]Gal(b1-3)GalNAc
How it was run: as §1

[5] = molecular target: Fuc(a1-2)[Gal(a1-3)]Gal(b1-3)GalNAc(b1-3)Gal(a1-4)Gal(b1-4)Glc
How it was run: as §1

[6] = molecular target: Fuc(a1-2)[Gal(a1-3)]Gal(b1-3)GlcNAc
How it was run: as §1

[7] = molecular target: Fuc(a1-2)[Gal(a1-3)]Gal(b1-3)GlcNAc(b1-2)Man(a1-3)[Fuc(a1-2)[Gal(a1-3)]Gal(b1-3)GlcNAc(b1-2)Man(a1-6)]Man(b1-4)GlcNAc(b1-4)GlcNAc
How it was run: as §1

[8] = molecular target: Fuc(a1-2)[Gal(a1-3)]Gal(b1-3)GlcNAc(b1-2)Man(a1-3)[Fuc(a1-2)[Gal(a1-3)]Gal(b1-3)GlcNAc(b1-2)Man(a1-6)]Man(b1-4)GlcNAc(b1-4)[Fuc(a1-6)]GlcNAc
How it was run: as §1

[9] = molecular target: Fuc(a1-2)[Gal(a1-3)]Gal(b1-3)GlcNAc(b1-3)GalNAc
How it was run: as §1

[10] = molecular target: Fuc(a1-2)[Gal(a1-3)]Gal(b1-3)GlcNAc(b1-6)GalNAc
How it was run: as §1

[11] = molecular target: Fuc(a1-2)[Gal(a1-3)]Gal(b1-4)Glc
How it was run: as §1

[12] = molecular target: Fuc(a1-2)[Gal(a1-3)]Gal(b1-4)GlcNAc
How it was run: as §1

[13] = molecular target: Fuc(a1-2)[Gal(a1-3)]Gal(b1-4)GlcNAc(b1-2)Man
How it was run: as §1

[14] = molecular target: Fuc(a1-2)[Gal(a1-3)]Gal(b1-4)GlcNAc(b1-2)Man(a1-3)[Fuc(a1-2)[Gal(a1-3)]Gal(b1-4)GlcNAc(b1-2)Man(a1-6)]Man(b1-4)GlcNAc(b1-4)GlcNAc
How it was run: as §1

[15] = molecular target: Fuc(a1-2)[Gal(a1-3)]Gal(b1-4)GlcNAc(b1-2)Man(a1-3)[Fuc(a1-2)[Gal(a1-3)]Gal(b1-4)GlcNAc(b1-2)Man(a1-6)]Man(b1-4)GlcNAc(b1-4)[Fuc(a1-6)]GlcNAc
How it was run: as §1

[16] = molecular target: Fuc(a1-2)[Gal(a1-3)]Gal(b1-4)GlcNAc(b1-3)GalNAc
How it was run: as §1

[17] = molecular target: Fuc(a1-2)[Gal(a1-3)]Gal(b1-4)GlcNAc(b1-3)[Fuc(a1-2)[Gal(a1-3)]Gal(b1-4)GlcNAc(b1-6)]GalNAc
How it was run: as §1

[18] = molecular target: Fuc(a1-2)[Gal(a1-3)]Gal(b1-4)GlcNAc(b1-6)GalNAc
How it was run: as §1

[19] = molecular target: Fuc(a1-2)[Gal(a1-3)]Gal(b1-4)[Fuc(a1-3)]Glc
How it was run: as §1

[20] = molecular target: Fuc(a1-2)[Gal(a1-3)]Gal(b1-4)[Fuc(a1-3)]GlcNAc
How it was run: as §1

[21] = molecular target: Fuc(a1-2)[Gal(a1-3)]Gal(b1-4)[Fuc(a1-3)]GlcNAc(b1-3)GalNAc
How it was run: as §1

[22] = molecular target: Fuc(a1-2)[Gal(a1-4)]Gal(b1-4)GlcNAc
How it was run: as §1

[23] = molecular target: Fuc(a1-2)[GalNAc(a1-3)]Gal
How it was run: as §1

[24] = molecular target: Fuc(a1-2)[GalNAc(a1-3)]Gal(b1-3)GalNAc(a1-3)[Fuc(a1-2)]Gal(b1-4)GlcNAc
How it was run: as §1

[25] = molecular target: Fuc(a1-2)[GalNAc(a1-3)]Gal(b1-3)GalNAc(b1-3)Gal(a1-4)Gal(b1-4)Glc
How it was run: as §1

[26] = molecular target: Fuc(a1-2)[GalNAc(a1-3)]Gal(b1-3)GlcNAc
How it was run: as §1

[27] = molecular target: Fuc(a1-2)[GalNAc(a1-3)]Gal(b1-3)GlcNAc(b1-2)Man(a1-3)[Fuc(a1-2)[GalNAc(a1-3)]Gal(b1-3)GlcNAc(b1-2)Man(a1-6)]Man(b1-4)GlcNAc(b1-4)GlcNAc
How it was run: as §1

[28] = molecular target: Fuc(a1-2)[GalNAc(a1-3)]Gal(b1-3)GlcNAc(b1-2)Man(a1-3)[Fuc(a1-2)[GalNAc(a1-3)]Gal(b1-3)GlcNAc(b1-2)Man(a1-6)]Man(b1-4)GlcNAc(b1-4)[Fuc(a1-6)]GlcNAc
How it was run: as §1

[29] = molecular target: Fuc(a1-2)[GalNAc(a1-3)]Gal(b1-3)GlcNAc(b1-3)GalNAc
How it was run: as §1

[30] = molecular target: Fuc(a1-2)[GalNAc(a1-3)]Gal(b1-3)GlcNAc(b1-6)GalNAc
How it was run: as §1

[31] = molecular target: Fuc(a1-2)[GalNAc(a1-3)]Gal(b1-4)Glc
How it was run: as §1

[32] = molecular target: Fuc(a1-2)[GalNAc(a1-3)]Gal(b1-4)GlcNAc
How it was run: as §1

[33] = molecular target: Fuc(a1-2)[GalNAc(a1-3)]Gal(b1-4)GlcNAc(b1-2)Man
How it was run: as §1

[34] = molecular target: Fuc(a1-2)[GalNAc(a1-3)]Gal(b1-4)GlcNAc(b1-2)Man(a1-3)[Fuc(a1-2)[GalNAc(a1-3)]Gal(b1-4)GlcNAc(b1-2)Man(a1-6)]Man(b1-4)GlcNAc(b1-4)GlcNAc
How it was run: as §1

[35] = molecular target: Fuc(a1-2)[GalNAc(a1-3)]Gal(b1-4)GlcNAc(b1-2)Man(a1-3)[Fuc(a1-2)[GalNAc(a1-3)]Gal(b1-4)GlcNAc(b1-2)Man(a1-6)]Man(b1-4)GlcNAc(b1-4)[Fuc(a1-6)]GlcNAc
How it was run: as §1

[36] = molecular target: Fuc(a1-2)[GalNAc(a1-3)]Gal(b1-4)GlcNAc(b1-3)Gal(b1-4)GlcNAc
How it was run: as §1

[37] = molecular target: Fuc(a1-2)[GalNAc(a1-3)]Gal(b1-4)GlcNAc(b1-3)Gal(b1-4)GlcNAc(b1-3)Gal(b1-4)GlcNAc
How it was run: as §1

[38] = molecular target: Fuc(a1-2)[GalNAc(a1-3)]Gal(b1-4)GlcNAc(b1-3)GalNAc
How it was run: as §1

[39] = molecular target: Fuc(a1-2)[GalNAc(a1-3)]Gal(b1-4)GlcNAc(b1-3)[Fuc(a1-2)[GalNAc(a1-3)]Gal(b1-4)GlcNAc(b1-6)]GalNAc
How it was run: as §1

[40] = molecular target: Fuc(a1-2)[GalNAc(a1-3)]Gal(b1-4)GlcNAc(b1-6)GalNAc
How it was run: as §1

[41] = molecular target: Fuc(a1-2)[GalNAc(a1-3)]Gal(b1-4)[Fuc(a1-3)]GlcNAc
How it was run: as §1

[42] = molecular target: Fuc(a1-2)[GalNAc(a1-3)]Gal(b1-4)[Fuc(a1-3)]GlcNAc(b1-3)GalNAc
How it was run: as §1

[43] = molecular target: Fuc(a1-2)[GalNAc(a1-4)]Gal(b1-4)GlcNAc
How it was run: as §1

B1: HA-00510 (Pseudomonas aeruginosa), Q02V39_PSEAB (protein)
chain: GVPIVNIATPNGAGLSNNHFRDYNVGANGLILNNATGKTQGTQLGGIILGNPNLKGQAAQVILNQVTGGNRSTLAGYTEVAGQSARVIVANPHGITCQGCGFINTPRATLTTGKPIMDGQRLERFQVDGGDIVVEGAELNVGNLEQFDLITRSAKLNAKLYAKNLNIVTGRNDVQADSLQATPRAADGSEKPQLAIDSSALGGMYAGAIRLVGTEQGVGVKLAGDMAASGGDIRIDASGKLSLAQASSQGDLKIAAQAVELNGKTYAGGSAEIRSAEELVNRQS
glycan array binding signal (z-score) [1]: -1.39
glycan array binding signal (z-score) [2]: -0.586
glycan array binding signal (z-score) (Fuc(a1-2)Gal6S(b1-4)Glc): -0.936
glycan array binding signal (z-score) [3]: -0.779
glycan array binding signal (z-score) (Fuc(a1-2)[Gal(a1-3)]Gal): -0.249
glycan array binding signal (z-score) [4]: 0.265
glycan array binding signal (z-score) [5]: -0.362
glycan array binding signal (z-score) [6]: -1.54
glycan array binding signal (z-score) [7]: 0.125
glycan array binding signal (z-score) [8]: 0.496
glycan array binding signal (z-score) [9]: -0.899
glycan array binding signal (z-score) [10]: -0.268
glycan array binding signal (z-score) [11]: -0.228
glycan array binding signal (z-score) [12]: -0.488
glycan array binding signal (z-score) [13]: 0.102
glycan array binding signal (z-score) [14]: -0.934
glycan array binding signal (z-score) [15]: 0.894
glycan array binding signal (z-score) [16]: 0.23
glycan array binding signal (z-score) [17]: 0.902
glycan array binding signal (z-score) [18]: 0.219
glycan array binding signal (z-score) [19]: 0.057
glycan array binding signal (z-score) [20]: 0.649
glycan array binding signal (z-score) [21]: 1
glycan array binding signal (z-score) [22]: 0.219
glycan array binding signal (z-score) [23]: -0.448
glycan array binding signal (z-score) [24]: 0.953
glycan array binding signal (z-score) [25]: -0.374
glycan array binding signal (z-score) [26]: 0.474
glycan array binding signal (z-score) [27]: -0.159
glycan array binding signal (z-score) [28]: 0.001
glycan array binding signal (z-score) [29]: 2.45
glycan array binding signal (z-score) [30]: -1.15
glycan array binding signal (z-score) [31]: -0.409
glycan array binding signal (z-score) [32]: -0.29
glycan array binding signal (z-score) [33]: -0.439
glycan array binding signal (z-score) [34]: -0.079
glycan array binding signal (z-score) [35]: 0.019
glycan array binding signal (z-score) [36]: -0.94
glycan array binding signal (z-score) [37]: -0.3
glycan array binding signal (z-score) [38]: -0.573
glycan array binding signal (z-score) [39]: -0.232
glycan array binding signal (z-score) [40]: -0.493
glycan array binding signal (z-score) [41]: -0.066
glycan array binding signal (z-score) [42]: -0.355
glycan array binding signal (z-score) [43]: 0.364
